# About 22,000 (6.9%) of roughly 320,000 compounds were called active. The inconclusive results got no clear call from the source; some entries with a clear call stand among them for comparison. Calls follow the shape of the dose curve; as a rule, active = well fitted inhibition curve with a large enough effect; inconclusive = small, poorly fitted or top-dose-only effect, or another doubt; inactive = no such curve, though single readings can be large or run the other way. Where the call is inconclusive, the potency comes from a doubtful curve fit.
# Assay: Primary qHTS for delayed death inhibitors of the malarial parasite plastid, 96 hour incubation
# Conditions: P. falciparum luciferase reporter growth; series mostly up to 28.7 µM
# Method in brief: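 P. falciparum expressing integrated firefly luciferase, in erythrocytes at 2% hematocrit, 0.05% parasitemia, incubated with compounds 96 h at 37 C, 5% CO2. Growth inhibition read as loss of luminescence; two-generation exposure targets delayed-death apicoplast inhibitors.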
# % is scaled to controls: 0 for no effect and ±100 for the full control effect; potency is read from the fitted curve at half-maximal effect.
Structure (SMILES),Potency,"activity change, negative = inhibition"
CSCCC(NC(=O)c1ccccc1)C(=O)N/N=C(\C)c1ccccc1 (stereo not drawn),inactive,–
CCOC(=O)N1CCC(NC(=O)CS(=O)Cc2nc(-c3ccccc3C)oc2C)CC1 (stereo not drawn),inactive,–
COc1ccc([C@H]2CC(=O)C=C(c3ccc(CNC(=O)OC(C)(C)C)cc3)C2)cc1,active: 5.86 µM,–
COc1ccc(CCNc2c(C)c(C)nc3ncnn23)cc1,–,inactive: 0.838% [at 5.75 µM]
CCCOc1ccc(N2C(=O)CC(N(CCc3ccccc3)C(=O)c3ccccc3)C2=O)cc1 (stereo not drawn),inactive,–
COc1ccc(Nc2cc(C)nc3ncnn23)c(OC)c1,active: 2.94 µM,–
Cc1ccc2nc3c(c(Nc4ccc5c(c4)OCCO5)c2c1)CCC3,"inconclusive: 1.85 µM [inhibitor, full curve]",–
Cc1c(NC(=O)C2CCCCC2)cc(C(=O)N2CCOCC2)cc1[N+](=O)[O-],"inconclusive: 1.47 µM [inhibitor, partial curve, poor fit]",–
CC(C)(C)C1N=C(c2ccc3ccccc3c2)OC1=O (stereo not drawn),inactive,–
CN(CCc1ccccn1)C(=O)CCc1nnc(CCCc2ccccc2)o1,"inconclusive: 10.4 µM [inhibitor, partial curve]",–
C(=N\c1nccs1)/c1cccnc1,"inconclusive: 18.5 µM [inhibitor, single point]",–
CC(=O)c1sc(NC(=O)c2ccc3c(c2)OCO3)nc1C,"inconclusive: 14.7 µM [inhibitor, partial curve]",–
O=S(=O)([O-])CCC[n+]1c(SCCCS(=O)(=O)O)sc2ccc(Cl)cc21,"inconclusive: 11.7 µM [inhibitor, partial curve, poor fit]",–
CCCCC(=NCCc1c(C)[nH]c2ccc(OC)cc12)C1=C(O)CC(c2ccccc2)CC1=O (stereo not drawn),inactive,–
CC(N=C1NS(=O)(=O)c2ccccc21)C(=O)NCc1ccncc1 (stereo not drawn),inactive,–
C#CCOCCOCCOCCNc1nc(N2CCOCC2)nc(N2CCN(C(=O)[C@H](Cc3ccc(O)cc3)n3cc([C@@H](N)C(C)CC)nn3)CC2)n1 (stereo partly drawn),active: 9.28 µM,–
CN(C)CCCn1c(=O)n(Cc2ccco2)c(=O)c2c3c(sc21)CCCCC3,active: 11.7 µM,–
CCOC(=O)C1(Cc2cccc(OC)c2)CCCN(Cc2cc(C(C)C)n[nH]2)C1 (stereo not drawn),"inconclusive: 9.28 µM [inhibitor, single point]",–
Cc1cccc(OCC(=O)N(Cc2ccccc2)c2c(N)n(Cc3ccccc3)c(=O)[nH]c2=O)c1,"inconclusive: 13.1 µM [inhibitor, single point]",–
O=C(CCC(=O)c1cccs1)OCC(=O)c1ccccc1F,"inconclusive: 0.738 µM [inhibitor, full curve, poor fit]",–
COc1ccc([N+](=O)[O-])cc1NC(=O)CCN1CCN(CCO)CC1,"inconclusive: 14.7 µM [inhibitor, single point]",–
O=C(NCc1ccc(F)cc1)c1cc2ccccn2n1,active: 3.7 µM,–
COc1ccc(Sc2cc(C(F)(F)F)nc(-c3ccccn3)n2)cc1,"inconclusive: 13.1 µM [inhibitor, single point]",–
COc1cccc(CC(=O)NC2CCSc3ccccc32)c1 (stereo not drawn),inactive,–
CN(Cc1ccccc1)c1nc(-c2cccc([N+](=O)[O-])c2)nc2ccccc12,inactive,–

Structure (SMILES),Potency,"activity change, negative = inhibition"
O=C(CCC1CCCC1)Nc1ccccc1-c1ccccc1,"inconclusive: 11.7 µM [inhibitor, single point]",–
Cc1cc(C)c2nc(N(CCCN(C)C)C(=O)c3ccc(S(=O)(=O)N4CC(C)OC(C)C4)cc3)sc2c1 (stereo not drawn),"inconclusive: 18.5 µM [inhibitor, single point]",–
COc1ccc(S(=O)(=O)N2CCC3(CC2)OCCN3S(=O)(=O)c2ccccc2)cc1OC,"inconclusive: 1.04 µM [inhibitor, partial curve, poor fit]",–
CC(=O)Nc1ccc(N=Cc2c(O)c3ccccc3oc2=O)cc1,inactive,–
CCCC(=O)NC(c1cccs1)c1cc([N+](=O)[O-])c2cccnc2c1O (stereo not drawn),inactive,–
C=CCSc1nnc(NC(=O)C2CSC3(C)CCC(=O)N23)s1 (stereo not drawn),"inconclusive: 18.5 µM [inhibitor, single point]",–
COc1ccc(/C=N/NC(=O)c2nc(-c3ccccc3)cc(-c3ccccc3)n2)cc1OC,active: 2.33 µM,–
Cc1ccc(OCC(=O)Nc2ccc(N3CCCC3)cc2)cc1C,inactive,–
COc1ccc(-c2nc3ccccc3o2)cc1NC(=O)CSc1ccc(Cl)cc1,"inconclusive: 18.5 µM [inhibitor, single point]",–
O=C(Nc1cccc(Cl)c1)c1nc[nH]c1C(=O)NCc1ccccc1,"inconclusive: 4.15 µM [inhibitor, single point]",–
COc1ccc(C)cc1S(=O)(=O)NC1CCCCCC1,"inconclusive: 16.5 µM [inhibitor, single point]",–
Clc1cccc(CNc2nnnn2-c2ccccc2)c1,active: 14.7 µM,–
COc1ccc(NC(=O)C(C)N2c3cccc4cccc(c34)S2(=O)=O)cc1OC (stereo not drawn),inactive,–
O=C(CCCc1nc(-c2ccc(Cl)cc2)no1)NC1CCCC1,active: 4.65 µM,–
Fc1ccc(Cn2nnnc2CN2CCc3ccccc3C2)cc1,inactive,–
COc1ccc(NC(=O)CSc2nnc(Cn3cnc4ccccc43)o2)cc1,inactive,–
COc1ccc(OCC(=O)N2CCN(Cc3c[nH]c4ccccc34)CC2)cc1,"inconclusive: 18.5 µM [inhibitor, single point]",–
O=C(NN1C(=O)c2ccccc2NC1c1ccoc1)c1ccc([N+](=O)[O-])cc1 (stereo not drawn),"inconclusive: 18.5 µM [inhibitor, single point]",–
CCCCS(=O)(=O)N1CCN(C(=N)N[N+](=O)[O-])CC1,"inconclusive: 18.5 µM [inhibitor, single point]",–
Cc1ccc(NC(=O)c2sc(=S)n(-c3cc(C)ccc3F)c2N)cc1,inactive,–
CCOC(=O)N1CCN(C(=O)c2ccc3c(Cl)c4c(nc3c2)CCCC4)CC1,"inconclusive: 3.7 µM [inhibitor, partial curve]",–
C[C@@]12CCC3[C@@](CCC4[C@@]3(C)CCC[C@@]4(C)C(=O)Nc3ccc(Cl)cc3)(CC1=O)C2 (stereo partly drawn),"inconclusive: 10.4 µM [inhibitor, single point]",–
CC(C)OC(=O)C1C(=O)CC(C)(O)C(C(=O)OC(C)C)C1c1cccc(O)c1 (stereo not drawn),active: 4.15 µM,–
Cc1ccc(C)c(N2CC(O)(c3cccs3)[N+]3=C2CCCC3)c1 (stereo not drawn),"inconclusive: 6.57 µM [inhibitor, partial curve, poor fit]",–
C/C(=N\NC(=O)CCc1ccccc1)C1C(=O)c2ccccc2C1=O,inactive,–

# Filtered by structure, the entries above with a tert-butyl group
Structure (SMILES),Potency,"activity change, negative = inhibition"
COc1ccc([C@H]2CC(=O)C=C(c3ccc(CNC(=O)OC(C)(C)C)cc3)C2)cc1,active: 5.86 µM,–
CC(C)(C)C1N=C(c2ccc3ccccc3c2)OC1=O (stereo not drawn),inactive,–

# Additional structures:

Structure (SMILES),Potency,"activity change, negative = inhibition"
C=CCn1c(SCC(=O)N2CCc3ccccc3C2)nc2sc(C)c(C)c2c1=O,"inconclusive: 18.5 µM [inhibitor, single point]",–
Oc1ccc(CNc2cccc(C(F)(F)F)c2)c2cccnc12,"inconclusive: 18.5 µM [inhibitor, single point]",–
c1ccc(-c2ccc3[nH]ccc3c2)cc1,inactive,–
CC(c1nnc(SCC(=O)Nc2cccnc2Cl)n1Cc1ccccc1)N(C)C (stereo not drawn),inactive,–
COc1cc(-c2cc(C(=O)NCc3ccco3)c3ccccc3n2)cc(OC)c1OC,active: 10.4 µM,–
C/C(CCc1ccccc1)=N\NC(=O)c1ccccc1[N+](=O)[O-],inactive,–
NC(=O)c1nsc(C(=O)N(c2ccccc2)C(C(=O)NC2CCCCC2)c2ccc(O)cc2)c1N (stereo not drawn),active: 10.4 µM,–
O=C(O)CCn1c(O)c(C=C2N=c3ccccc3=N2)sc1=S,active: 4.65 µM,–
NC(=O)NC(CC(=O)NCc1ccc2c(c1)OCO2)c1ccccc1Cl (stereo not drawn),inactive,–
COC(=O)C1=C(c2c(C)noc2C)C[C@@H]2CC[C@H]1N2C(=O)N1CCc2cc(OC)c(OC)cc2C1,"inconclusive: 6.57 µM [inhibitor, partial curve]",–
COc1ccc(CCNC(=O)Cn2cnc3c2c(=O)n(C)c(=O)n3C)cc1OC,"inconclusive: 0.0928 µM [inhibitor, full curve, poor fit]",–
Cc1ccc(C)c(NC(=O)CCN2C(=O)c3ccccc3C2=O)c1,"inconclusive: 0.465 µM [inhibitor, full curve]",–
Cc1cc(C)c(NC2=CC(=O)CC(C)(C)C2)c(C#N)c1,inactive,–
CC(=O)Nc1ccc(OCC(O)Cn2c(C)nc3ccccc32)cc1 (stereo not drawn),inactive,–
CCN1CCN(CCCNC(=O)CNC(=O)c2nn(-c3ccc(OC)cc3OC)c(=O)c3ccccc23)CC1,"inconclusive: 9.28 µM [inhibitor, single point]",–
O=C(CCNS(=O)(=O)c1ccccc1)N1CCC(Cc2ccccc2)CC1,"inconclusive: 18.5 µM [inhibitor, single point]",–
CCOc1ccc(C(=O)NCC(=O)N2CCN(c3ccccc3O)CC2)cc1,inactive,–
COc1ccc(C(C(=O)NCC2CCCO2)N(Cc2ccccc2)C(=O)c2snc(C(N)=O)c2N)cc1OC (stereo not drawn),"inconclusive: 1.65 µM [inhibitor, full curve]",–
Cc1cccc(N2CCN(c3nc(C)cc(C)c3C#N)CC2C)c1 (stereo not drawn),"inconclusive: 9.28 µM [inhibitor, single point]",–
CC1CCN(C(=O)/C(=C/c2ccccc2Cl)c2ccccc2)CC1,"inconclusive: 9.28 µM [inhibitor, single point]",–
COc1ccc(CCNC2CCc3ccccc3C2)cc1 (stereo not drawn),"inconclusive: 11.7 µM [inhibitor, single point]",–
COc1ccc(-c2c(-c3ccccc3OC)sc3ccccc23)cc1OC,active: 9.28 µM,–
COc1ccc(CNC(=O)COC(=O)c2n[nH]c3ccccc23)cc1OC,"inconclusive: 18.5 µM [inhibitor, single point]",–
